From publication doi:10.1101/650358 come the findings set out here.

No constants are given. Whether binding was seen depends on the method and setting. In cells and extracts the contact can be indirect. A result given as binding can be weak or reduced; the word gives no strength. Tags and fused reporters may be left off the sequences shown.

For this experiment, the target named is T1, Arabidopsis thaliana LONESOME HIGHWAY (AtLHW), BiFC fusion (Arabidopsis thaliana) (UniProt Q9XIN0).
T1 sequence: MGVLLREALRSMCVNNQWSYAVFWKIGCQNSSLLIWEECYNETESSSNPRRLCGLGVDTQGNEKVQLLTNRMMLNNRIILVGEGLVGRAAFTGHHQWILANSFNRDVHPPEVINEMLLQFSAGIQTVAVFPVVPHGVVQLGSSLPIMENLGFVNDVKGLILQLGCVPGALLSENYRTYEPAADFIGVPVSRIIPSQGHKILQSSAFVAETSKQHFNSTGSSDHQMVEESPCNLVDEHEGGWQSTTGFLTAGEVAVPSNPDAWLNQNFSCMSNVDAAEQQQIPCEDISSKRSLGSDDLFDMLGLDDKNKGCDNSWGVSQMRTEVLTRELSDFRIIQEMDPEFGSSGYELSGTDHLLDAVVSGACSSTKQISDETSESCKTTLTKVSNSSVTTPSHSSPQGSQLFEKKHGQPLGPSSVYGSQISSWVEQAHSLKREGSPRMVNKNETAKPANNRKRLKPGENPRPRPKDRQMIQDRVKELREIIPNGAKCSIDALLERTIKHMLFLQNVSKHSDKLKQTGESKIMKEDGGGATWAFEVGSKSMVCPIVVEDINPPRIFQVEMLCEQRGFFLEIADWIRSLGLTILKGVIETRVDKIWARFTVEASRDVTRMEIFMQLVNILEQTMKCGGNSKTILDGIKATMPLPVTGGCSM
The experiment is described as follows: split reporter.

On to “Marchantia polymorpha TMO5 ortholog (MpTMO5), BiFC fusion”, for which the binding result is “binds”.
